# Reference: the supplement of paper PMC12819154, “High-throughput peptide-centric local stability assay extends protein–ligand identification to membrane proteins, tissues and bacteria” (Nature Structural & Molecular Biology, 2025)
# Chains of the proteins cited; added tags and fusions are not shown. Lines headed by an entry give the natural chain unless they say otherwise; changes in a name come on top.
# UniProt Q99909, whole entry: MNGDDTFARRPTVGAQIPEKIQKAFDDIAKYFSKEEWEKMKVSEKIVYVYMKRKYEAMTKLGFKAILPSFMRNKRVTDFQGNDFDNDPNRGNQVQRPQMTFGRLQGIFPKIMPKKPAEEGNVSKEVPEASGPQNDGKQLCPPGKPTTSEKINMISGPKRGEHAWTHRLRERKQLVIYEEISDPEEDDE
# UniProt Q9BTD8: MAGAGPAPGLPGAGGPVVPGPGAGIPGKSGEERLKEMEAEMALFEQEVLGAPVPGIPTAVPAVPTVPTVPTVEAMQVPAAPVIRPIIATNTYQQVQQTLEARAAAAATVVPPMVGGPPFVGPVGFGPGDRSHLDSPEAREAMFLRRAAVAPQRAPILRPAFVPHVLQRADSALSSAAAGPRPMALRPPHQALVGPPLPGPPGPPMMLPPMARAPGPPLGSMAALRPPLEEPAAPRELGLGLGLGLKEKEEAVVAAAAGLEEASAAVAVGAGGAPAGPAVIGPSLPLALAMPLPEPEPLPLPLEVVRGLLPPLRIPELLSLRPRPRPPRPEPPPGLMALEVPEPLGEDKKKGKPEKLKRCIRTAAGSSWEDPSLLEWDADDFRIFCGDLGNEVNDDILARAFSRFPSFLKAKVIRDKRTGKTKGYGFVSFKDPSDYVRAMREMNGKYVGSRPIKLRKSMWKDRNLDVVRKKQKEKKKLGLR
# UniProt Q9BRU9: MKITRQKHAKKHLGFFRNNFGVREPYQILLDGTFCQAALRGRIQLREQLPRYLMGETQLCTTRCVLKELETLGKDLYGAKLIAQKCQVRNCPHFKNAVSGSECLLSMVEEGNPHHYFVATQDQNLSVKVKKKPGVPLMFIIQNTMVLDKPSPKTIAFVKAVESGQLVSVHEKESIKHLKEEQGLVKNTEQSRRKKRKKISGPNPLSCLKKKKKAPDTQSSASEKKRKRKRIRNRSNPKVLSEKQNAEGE
# UniProt Q9BTU6: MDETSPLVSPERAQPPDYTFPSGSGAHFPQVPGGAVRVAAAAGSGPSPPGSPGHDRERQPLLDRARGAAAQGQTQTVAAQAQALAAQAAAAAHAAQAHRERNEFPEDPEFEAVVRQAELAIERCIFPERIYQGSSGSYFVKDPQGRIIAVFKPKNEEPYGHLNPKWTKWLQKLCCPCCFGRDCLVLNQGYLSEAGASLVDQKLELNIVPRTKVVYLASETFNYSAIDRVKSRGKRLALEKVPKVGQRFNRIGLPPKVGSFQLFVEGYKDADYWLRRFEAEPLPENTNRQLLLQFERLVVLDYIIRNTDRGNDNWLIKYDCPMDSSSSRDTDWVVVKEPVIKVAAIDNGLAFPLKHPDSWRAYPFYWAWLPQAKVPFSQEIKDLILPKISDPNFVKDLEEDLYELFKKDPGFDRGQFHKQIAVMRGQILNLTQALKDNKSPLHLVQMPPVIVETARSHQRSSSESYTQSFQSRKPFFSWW
# UniProt Q99543: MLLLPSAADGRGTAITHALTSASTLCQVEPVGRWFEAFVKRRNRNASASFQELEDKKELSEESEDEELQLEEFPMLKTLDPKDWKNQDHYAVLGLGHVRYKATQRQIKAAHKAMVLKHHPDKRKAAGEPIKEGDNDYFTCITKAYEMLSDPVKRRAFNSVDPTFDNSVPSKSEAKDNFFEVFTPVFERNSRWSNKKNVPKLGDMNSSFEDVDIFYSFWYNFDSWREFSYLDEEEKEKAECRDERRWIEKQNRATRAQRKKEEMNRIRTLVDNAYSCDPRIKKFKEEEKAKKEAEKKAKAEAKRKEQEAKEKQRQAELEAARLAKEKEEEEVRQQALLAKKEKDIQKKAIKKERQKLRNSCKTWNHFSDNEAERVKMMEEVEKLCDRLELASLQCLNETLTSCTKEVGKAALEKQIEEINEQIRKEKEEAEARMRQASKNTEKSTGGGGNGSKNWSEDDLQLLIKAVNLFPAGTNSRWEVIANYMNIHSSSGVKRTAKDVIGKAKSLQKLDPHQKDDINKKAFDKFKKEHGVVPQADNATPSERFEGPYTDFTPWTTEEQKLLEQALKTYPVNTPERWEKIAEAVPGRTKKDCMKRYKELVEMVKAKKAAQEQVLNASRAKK
# UniProt Q9BQ61: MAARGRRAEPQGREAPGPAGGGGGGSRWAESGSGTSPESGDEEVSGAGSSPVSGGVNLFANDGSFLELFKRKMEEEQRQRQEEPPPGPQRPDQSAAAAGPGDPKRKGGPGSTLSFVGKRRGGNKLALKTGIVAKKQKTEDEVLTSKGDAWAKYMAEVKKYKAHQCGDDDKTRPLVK
# UniProt Q9BQD3: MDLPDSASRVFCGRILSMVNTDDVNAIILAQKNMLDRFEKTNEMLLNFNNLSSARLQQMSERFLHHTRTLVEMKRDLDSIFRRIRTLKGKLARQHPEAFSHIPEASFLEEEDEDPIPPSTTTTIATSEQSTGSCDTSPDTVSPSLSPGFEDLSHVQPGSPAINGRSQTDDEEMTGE
# UniProt Q9BRL6: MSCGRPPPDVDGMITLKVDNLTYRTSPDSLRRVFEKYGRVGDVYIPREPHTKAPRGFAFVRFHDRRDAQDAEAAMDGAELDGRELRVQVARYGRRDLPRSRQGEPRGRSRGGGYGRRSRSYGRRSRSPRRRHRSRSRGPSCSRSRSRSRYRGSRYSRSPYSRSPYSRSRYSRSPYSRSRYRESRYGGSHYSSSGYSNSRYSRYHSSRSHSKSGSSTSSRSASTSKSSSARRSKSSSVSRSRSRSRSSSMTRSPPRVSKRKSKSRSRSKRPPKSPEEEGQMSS
# UniProt Q9BPX3, whole entry, looked up: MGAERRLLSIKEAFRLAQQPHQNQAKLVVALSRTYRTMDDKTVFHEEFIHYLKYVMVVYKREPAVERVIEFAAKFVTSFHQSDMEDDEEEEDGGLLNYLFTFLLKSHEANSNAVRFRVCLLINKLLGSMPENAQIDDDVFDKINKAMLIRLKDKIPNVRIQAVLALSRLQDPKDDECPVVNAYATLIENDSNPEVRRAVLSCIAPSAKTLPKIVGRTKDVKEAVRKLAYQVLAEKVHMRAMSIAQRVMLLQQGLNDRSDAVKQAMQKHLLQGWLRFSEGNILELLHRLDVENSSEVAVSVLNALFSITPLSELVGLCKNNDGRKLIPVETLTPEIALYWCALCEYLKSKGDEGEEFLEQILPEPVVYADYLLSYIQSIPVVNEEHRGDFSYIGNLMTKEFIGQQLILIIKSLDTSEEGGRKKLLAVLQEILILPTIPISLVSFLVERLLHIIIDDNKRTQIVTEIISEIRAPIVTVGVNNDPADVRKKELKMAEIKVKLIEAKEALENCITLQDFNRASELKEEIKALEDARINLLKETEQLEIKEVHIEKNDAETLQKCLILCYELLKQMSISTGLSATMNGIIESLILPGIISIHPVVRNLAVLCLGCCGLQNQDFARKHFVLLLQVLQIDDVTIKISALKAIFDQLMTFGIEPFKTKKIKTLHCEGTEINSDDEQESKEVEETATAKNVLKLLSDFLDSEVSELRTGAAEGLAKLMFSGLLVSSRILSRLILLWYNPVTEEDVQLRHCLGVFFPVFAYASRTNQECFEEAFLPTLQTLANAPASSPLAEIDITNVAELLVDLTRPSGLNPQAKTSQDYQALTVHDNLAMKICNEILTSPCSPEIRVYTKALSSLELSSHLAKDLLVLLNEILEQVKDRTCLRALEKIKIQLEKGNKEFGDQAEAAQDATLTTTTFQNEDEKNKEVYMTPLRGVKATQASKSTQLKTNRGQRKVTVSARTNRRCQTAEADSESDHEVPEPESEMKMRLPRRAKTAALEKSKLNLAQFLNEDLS
# UniProt Q9BSW2: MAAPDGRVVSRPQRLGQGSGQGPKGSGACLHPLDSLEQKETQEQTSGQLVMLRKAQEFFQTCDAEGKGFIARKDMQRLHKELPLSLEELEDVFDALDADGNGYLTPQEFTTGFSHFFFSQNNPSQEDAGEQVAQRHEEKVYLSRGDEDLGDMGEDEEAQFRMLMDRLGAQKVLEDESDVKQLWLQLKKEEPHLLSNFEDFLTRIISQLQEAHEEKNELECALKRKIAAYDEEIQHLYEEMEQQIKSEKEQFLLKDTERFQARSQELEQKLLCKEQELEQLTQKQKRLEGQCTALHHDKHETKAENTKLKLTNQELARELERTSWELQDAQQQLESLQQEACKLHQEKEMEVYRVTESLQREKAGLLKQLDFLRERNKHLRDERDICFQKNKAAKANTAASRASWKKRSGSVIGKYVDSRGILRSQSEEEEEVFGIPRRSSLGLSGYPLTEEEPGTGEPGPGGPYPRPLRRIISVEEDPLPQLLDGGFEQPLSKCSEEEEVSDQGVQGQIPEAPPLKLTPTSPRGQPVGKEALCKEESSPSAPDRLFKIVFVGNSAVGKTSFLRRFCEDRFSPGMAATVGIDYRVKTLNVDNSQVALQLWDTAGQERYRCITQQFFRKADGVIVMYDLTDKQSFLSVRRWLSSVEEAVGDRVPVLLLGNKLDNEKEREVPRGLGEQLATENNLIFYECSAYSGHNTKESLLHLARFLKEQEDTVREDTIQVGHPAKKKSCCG
# UniProt Q9BV86: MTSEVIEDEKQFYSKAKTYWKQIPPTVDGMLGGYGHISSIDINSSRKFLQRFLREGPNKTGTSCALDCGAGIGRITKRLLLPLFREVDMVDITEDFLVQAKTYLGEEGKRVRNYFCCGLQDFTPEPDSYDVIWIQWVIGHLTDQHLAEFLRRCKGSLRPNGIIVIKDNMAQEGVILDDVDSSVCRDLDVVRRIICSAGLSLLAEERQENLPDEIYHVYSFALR
# UniProt Q9BUN5: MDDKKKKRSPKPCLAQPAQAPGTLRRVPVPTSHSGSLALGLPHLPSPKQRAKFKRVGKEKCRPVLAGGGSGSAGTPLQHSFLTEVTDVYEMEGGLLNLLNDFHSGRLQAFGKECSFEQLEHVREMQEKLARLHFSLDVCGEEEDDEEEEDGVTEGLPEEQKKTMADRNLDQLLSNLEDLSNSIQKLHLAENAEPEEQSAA
# UniProt Q99747: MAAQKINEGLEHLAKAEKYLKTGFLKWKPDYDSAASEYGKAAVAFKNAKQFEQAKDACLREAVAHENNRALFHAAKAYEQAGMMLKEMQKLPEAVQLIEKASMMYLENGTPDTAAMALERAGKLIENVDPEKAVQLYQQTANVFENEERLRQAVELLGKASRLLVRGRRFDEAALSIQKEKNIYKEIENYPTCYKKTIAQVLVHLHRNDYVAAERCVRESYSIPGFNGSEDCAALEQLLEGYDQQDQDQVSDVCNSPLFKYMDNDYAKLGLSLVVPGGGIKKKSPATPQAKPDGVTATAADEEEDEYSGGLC
# UniProt Q99755: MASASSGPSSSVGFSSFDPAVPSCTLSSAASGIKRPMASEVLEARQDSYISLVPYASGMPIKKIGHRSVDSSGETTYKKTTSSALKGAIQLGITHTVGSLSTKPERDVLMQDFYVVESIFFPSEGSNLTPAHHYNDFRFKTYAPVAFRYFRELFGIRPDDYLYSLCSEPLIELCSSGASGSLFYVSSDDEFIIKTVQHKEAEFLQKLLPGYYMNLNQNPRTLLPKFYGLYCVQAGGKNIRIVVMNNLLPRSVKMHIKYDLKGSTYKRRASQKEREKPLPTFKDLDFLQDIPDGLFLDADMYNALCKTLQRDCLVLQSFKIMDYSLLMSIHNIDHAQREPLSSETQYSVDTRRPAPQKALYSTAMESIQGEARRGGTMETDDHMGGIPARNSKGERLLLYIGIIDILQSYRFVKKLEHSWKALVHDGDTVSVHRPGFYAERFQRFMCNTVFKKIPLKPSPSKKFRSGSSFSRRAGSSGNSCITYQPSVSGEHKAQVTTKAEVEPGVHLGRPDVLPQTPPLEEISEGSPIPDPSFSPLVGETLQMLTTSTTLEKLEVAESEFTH
# UniProt Q99536: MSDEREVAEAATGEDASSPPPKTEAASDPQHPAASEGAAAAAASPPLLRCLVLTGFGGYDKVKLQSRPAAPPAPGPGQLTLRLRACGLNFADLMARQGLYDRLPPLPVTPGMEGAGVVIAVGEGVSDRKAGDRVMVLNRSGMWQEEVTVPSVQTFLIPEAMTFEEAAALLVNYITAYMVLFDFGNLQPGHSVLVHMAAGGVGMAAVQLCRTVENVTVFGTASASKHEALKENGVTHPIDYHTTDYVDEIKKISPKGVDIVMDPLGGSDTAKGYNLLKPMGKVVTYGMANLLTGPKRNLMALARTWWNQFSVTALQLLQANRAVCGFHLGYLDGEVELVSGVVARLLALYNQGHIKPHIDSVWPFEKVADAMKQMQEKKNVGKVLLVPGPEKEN
# UniProt Q99623, whole entry: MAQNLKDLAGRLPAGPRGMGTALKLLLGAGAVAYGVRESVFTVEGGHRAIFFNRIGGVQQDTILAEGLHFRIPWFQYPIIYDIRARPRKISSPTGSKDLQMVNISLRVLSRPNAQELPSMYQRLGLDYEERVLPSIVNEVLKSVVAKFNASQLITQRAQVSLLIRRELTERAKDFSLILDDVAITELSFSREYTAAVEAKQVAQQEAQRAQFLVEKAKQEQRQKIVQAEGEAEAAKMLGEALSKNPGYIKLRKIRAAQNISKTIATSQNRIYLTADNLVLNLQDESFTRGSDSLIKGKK
# UniProt Q9BUL8: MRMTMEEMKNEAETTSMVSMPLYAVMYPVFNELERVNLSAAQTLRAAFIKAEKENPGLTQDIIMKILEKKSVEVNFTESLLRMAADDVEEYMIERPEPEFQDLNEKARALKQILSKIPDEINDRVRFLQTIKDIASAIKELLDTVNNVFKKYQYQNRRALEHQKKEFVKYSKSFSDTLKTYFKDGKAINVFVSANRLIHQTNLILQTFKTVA
# Some of the results follow. Most values lie at the level of the controls, where differences are scatter.
# Compound: CN[C@@H]1C[C@H]2O[C@@](C)([C@@H]1OC)n1c3ccccc3c3c4c(c5c6ccccc6n2c5c31)C(=O)NC4 [staurosporine]
# Test: log2 fold change of tryptic peptide abundance, ligand vs vehicle (limited proteolysis) (log2 ratio); higher = more trypsin-susceptible (destabilized)
# Details: ligand concentration: 20 uM; sample: K562 cleared lysate; digestion: 4 min, 22 C (HT-PELSA RT4min, Orbitrap Astral)
row,Target,log2 fold change
1,"DCTN5 (peptide sequence: MELGELLYNK, peptide start residue: 1) (UniProt Q9BTE1)",-0.222
2,"UniProt Q99909 (peptide sequence: AILPSFMR, peptide start residue: 65)",0.275
3,"PIMREG (peptide sequence: LSGAAPAHSAADPWEKEHHR, peptide start residue: 143) (UniProt Q9BSJ6)",0.143
4,"RBM42 (peptide sequence: ELGLGLGLGLK, peptide start residue: 236) (UniProt Q9BTD8)",0.0949
5,"GORASP1 (peptide sequence: ANVEKPVKLEVFNMK, peptide start residue: 61) (UniProt Q9BQQ3)",-0.0933
6,"PKP4 (peptide sequence: TGSVGIGNLQR, peptide start residue: 445) (UniProt Q99569)",-0.279
7,"UTP23 (peptide sequence: HLKEEQGLVK, peptide start residue: 177) (UniProt Q9BRU9)",0.301
8,"PI4K2A (peptide sequence: LALEKVPK, peptide start residue: 236) (UniProt Q9BTU6)",0.236
9,"DHRS4 (peptide sequence: LAQDGAHVVVSSR, peptide start residue: 52) (UniProt Q9BTZ2)",-0.163
10,"DNAJC2 (peptide sequence: WEVIANYMNIHSSSGVKR, peptide start residue: 477) (UniProt Q99543)",0.893
11,"TCF25 (peptide sequence: SFYLALYK, peptide start residue: 342) (UniProt Q9BQ70)",0.29
12,"PTPN18 (peptide sequence: ADGVCSTVAGSRPENVR, peptide start residue: 42) (UniProt Q99952)",0.287
13,"UniProt Q9BQ61 (peptide sequence: KQKTEDEVLTSK, peptide start residue: 135)",-0.52
14,"KXD1 (peptide sequence: DLDSIFR, peptide start residue: 76) (UniProt Q9BQD3)",-0.133
15,"DOHH (peptide sequence: ESCEVALDMYEHETGR, peptide start residue: 271) (UniProt Q9BU89)",-0.115
16,"PAIP2 (peptide sequence: CFQEMLEEEEEHEWFIPAR, peptide start residue: 60) (UniProt Q9BPZ3)",0.641
17,"SRSF8 (peptide sequence: VGDVYIPREPHTKAPR, peptide start residue: 40) (UniProt Q9BRL6)",0.493
18,"TSEN34 (peptide sequence: KTLLLCSPQPDGK, peptide start residue: 286) (UniProt Q9BSV6)",0.363
19,"NCAPG (peptide sequence: AIFDQLMTFGIEPFKTK, peptide start residue: 644) (UniProt Q9BPX3)",-0.145
20,"C1orf50 (peptide sequence: KVLEDAHR, peptide start residue: 94) (UniProt Q9BV19)",0.333
21,"MACROD1 (peptide sequence: EWLEQHKDKVDR, peptide start residue: 289) (UniProt Q9BQ69)",0.162
22,"UniProt Q9BSW2 (peptide sequence: VLEDESDVK, peptide start residue: 172)",-0.292

row,Target,log2 fold change
1,"UniProt Q9BV86 (peptide sequence: TYLGEEGKR, peptide start residue: 102)",0.225
2,"CCDC28B (peptide sequence: RVPVPTSHSGSLALGLPHLPSPK, peptide start residue: 26) (UniProt Q9BUN5)",0.212
3,"KIF2C (peptide sequence: AHTPFRESK, peptide start residue: 535) (UniProt Q99661)",0.19
4,"ALKBH7 (peptide sequence: TLPGPSWVR, peptide start residue: 11) (UniProt Q9BT30)",0.284
5,"YIPF4 (peptide sequence: ESTATTFLR, peptide start residue: 48) (UniProt Q9BSR8)",0.152
6,"DOK1 (peptide sequence: TWAVLYPASPHGVAR, peptide start residue: 25) (UniProt Q99704)",-0.0936
7,"NAPG (peptide sequence: NDYVAAERCVR, peptide start residue: 208) (UniProt Q99747)",-0.909
8,"CENPO (peptide sequence: AILQAYHFTGLSGK, peptide start residue: 103) (UniProt Q9BU64)",-0.78
9,"POP1 (peptide sequence: NQPTNVTLSSGFVADR, peptide start residue: 15) (UniProt Q99575)",-0.142
10,"PIP5K1A (peptide sequence: KIPLKPSPSK, peptide start residue: 452) (UniProt Q99755)",0.994
11,"UniProt Q9BSH4 (peptide sequence: IFSKLCLNIR, peptide start residue: 80)",-0.614
12,"FYCO1 (peptide sequence: HLGDQMEASLLAVRK, peptide start residue: 672) (UniProt Q9BQS8)",0.353
13,"PIK3R4 (peptide sequence: KIIEGTEVVQEIQNK, peptide start residue: 1293) (UniProt Q99570)",0.545
14,"UniProt Q9BQI6 (peptide sequence: KHIYRAQAVR, peptide start residue: 379)",0.92
15,"MTA3 (peptide sequence: QAFFLHTTYFTK, peptide start residue: 466) (UniProt Q9BTC8)",-0.159
16,"NAP1L4 (peptide sequence: YAALYQPLFDK, peptide start residue: 95) (UniProt Q99733)",0.316
17,"UniProt Q9BS31 (peptide sequence: SYLGLTNQSR, peptide start residue: 113)",-0.31
18,"MPHOSPH9 (peptide sequence: ATDNHVNHSSCPEPVPNGVK, peptide start residue: 900) (UniProt Q99550)",-0.569
19,"VAT1 (peptide sequence: GYNLLKPMGK, peptide start residue: 272) (UniProt Q99536)",0.167
20,"MNT (peptide sequence: LSHRPQPELLK, peptide start residue: 355) (UniProt Q99583)",0.352
21,"UniProt Q99623 (peptide sequence: IVQAEGEAEAAK, peptide start residue: 225)",0.534
22,"PDCD10 (peptide sequence: MTMEEMK, peptide start residue: 3) (UniProt Q9BUL8)",0.298

# Single entries from the entries so far:
# Entry of ALKBH7 (peptide sequence: TLPGPSWVR, peptide start residue: 11) (UniProt Q9BT30) under log2 fold change: 0.284
# Entry of YIPF4 (peptide sequence: ESTATTFLR, peptide start residue: 48) (UniProt Q9BSR8) under log2 fold change: 0.152
# Entry of CCDC28B (peptide sequence: RVPVPTSHSGSLALGLPHLPSPK, peptide start residue: 26) (UniProt Q9BUN5) under log2 fold change: 0.212
# Entry of UniProt Q9BS31 (peptide sequence: SYLGLTNQSR, peptide start residue: 113) under log2 fold change: -0.31
